Laboratory results from the supplement of paper PMC7666118.
The other results are listed elsewhere or left out.

Amino acid sequences for entries named in this document (tags omitted). A change or cut given only in a name is not applied to a line headed by its entry.
UniProt Q9BTT4: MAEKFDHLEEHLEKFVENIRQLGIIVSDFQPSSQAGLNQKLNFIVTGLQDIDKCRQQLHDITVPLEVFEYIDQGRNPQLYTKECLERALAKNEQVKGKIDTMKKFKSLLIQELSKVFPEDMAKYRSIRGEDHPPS
UniProt Q9Y6C9: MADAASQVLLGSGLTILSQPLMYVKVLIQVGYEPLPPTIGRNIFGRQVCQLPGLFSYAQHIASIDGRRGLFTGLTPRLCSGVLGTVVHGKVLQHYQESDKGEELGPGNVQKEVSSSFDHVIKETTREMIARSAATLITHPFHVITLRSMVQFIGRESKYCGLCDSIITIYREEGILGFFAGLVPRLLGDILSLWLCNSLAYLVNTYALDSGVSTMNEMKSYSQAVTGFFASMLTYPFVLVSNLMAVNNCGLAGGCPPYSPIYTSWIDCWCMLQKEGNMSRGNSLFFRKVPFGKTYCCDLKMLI
UniProt P55081: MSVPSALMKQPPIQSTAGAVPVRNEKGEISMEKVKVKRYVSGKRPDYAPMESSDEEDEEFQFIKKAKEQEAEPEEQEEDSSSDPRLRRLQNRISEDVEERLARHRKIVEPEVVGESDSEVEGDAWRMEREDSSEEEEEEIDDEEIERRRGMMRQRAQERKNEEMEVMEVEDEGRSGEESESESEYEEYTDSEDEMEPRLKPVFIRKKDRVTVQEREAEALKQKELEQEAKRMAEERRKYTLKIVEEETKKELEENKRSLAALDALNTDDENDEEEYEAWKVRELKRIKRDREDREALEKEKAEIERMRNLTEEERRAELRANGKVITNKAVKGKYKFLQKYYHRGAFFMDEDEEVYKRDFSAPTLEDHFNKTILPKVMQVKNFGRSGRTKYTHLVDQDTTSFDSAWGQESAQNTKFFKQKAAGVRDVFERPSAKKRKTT
UniProt P20585: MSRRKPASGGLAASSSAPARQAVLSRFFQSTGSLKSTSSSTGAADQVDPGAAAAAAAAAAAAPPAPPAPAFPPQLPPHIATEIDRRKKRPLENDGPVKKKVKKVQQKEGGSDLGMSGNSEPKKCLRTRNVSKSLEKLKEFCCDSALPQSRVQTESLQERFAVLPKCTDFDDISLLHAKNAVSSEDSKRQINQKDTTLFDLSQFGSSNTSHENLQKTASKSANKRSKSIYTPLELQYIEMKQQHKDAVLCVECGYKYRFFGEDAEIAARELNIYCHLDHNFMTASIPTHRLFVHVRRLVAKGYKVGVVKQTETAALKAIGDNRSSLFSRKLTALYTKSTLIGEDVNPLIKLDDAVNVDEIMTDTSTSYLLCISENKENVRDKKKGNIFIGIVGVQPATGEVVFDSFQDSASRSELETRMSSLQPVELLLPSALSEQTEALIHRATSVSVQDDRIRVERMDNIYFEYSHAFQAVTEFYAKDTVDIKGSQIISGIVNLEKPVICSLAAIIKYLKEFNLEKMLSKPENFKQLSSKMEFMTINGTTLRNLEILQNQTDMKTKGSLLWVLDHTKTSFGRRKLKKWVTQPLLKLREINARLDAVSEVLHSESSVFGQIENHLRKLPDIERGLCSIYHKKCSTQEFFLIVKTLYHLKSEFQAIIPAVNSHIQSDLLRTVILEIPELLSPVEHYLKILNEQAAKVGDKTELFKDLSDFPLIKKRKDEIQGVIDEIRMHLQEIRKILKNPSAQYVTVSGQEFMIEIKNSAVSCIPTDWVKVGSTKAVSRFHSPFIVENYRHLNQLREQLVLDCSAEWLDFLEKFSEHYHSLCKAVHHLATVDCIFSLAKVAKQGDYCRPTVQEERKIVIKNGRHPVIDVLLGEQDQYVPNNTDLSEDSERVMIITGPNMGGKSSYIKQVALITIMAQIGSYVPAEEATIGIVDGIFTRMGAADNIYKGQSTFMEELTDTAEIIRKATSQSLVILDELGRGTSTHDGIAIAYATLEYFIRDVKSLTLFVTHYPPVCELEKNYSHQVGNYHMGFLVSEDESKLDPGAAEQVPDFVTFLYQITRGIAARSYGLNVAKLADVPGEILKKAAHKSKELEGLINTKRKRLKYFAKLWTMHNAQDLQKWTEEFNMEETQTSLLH
UniProt Q9UDX5: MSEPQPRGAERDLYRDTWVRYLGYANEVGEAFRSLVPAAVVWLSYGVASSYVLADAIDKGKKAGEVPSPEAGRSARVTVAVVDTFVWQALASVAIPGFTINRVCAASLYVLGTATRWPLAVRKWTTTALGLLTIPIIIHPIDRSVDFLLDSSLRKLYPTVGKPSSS
UniProt Q9NPJ6: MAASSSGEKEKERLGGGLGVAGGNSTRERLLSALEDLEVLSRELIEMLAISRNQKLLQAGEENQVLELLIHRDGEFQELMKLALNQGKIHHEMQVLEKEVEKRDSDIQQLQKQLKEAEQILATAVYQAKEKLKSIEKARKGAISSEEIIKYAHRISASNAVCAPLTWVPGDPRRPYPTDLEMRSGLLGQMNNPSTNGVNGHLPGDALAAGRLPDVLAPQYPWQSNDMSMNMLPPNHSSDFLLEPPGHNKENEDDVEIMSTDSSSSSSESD
UniProt P35579, whole entry: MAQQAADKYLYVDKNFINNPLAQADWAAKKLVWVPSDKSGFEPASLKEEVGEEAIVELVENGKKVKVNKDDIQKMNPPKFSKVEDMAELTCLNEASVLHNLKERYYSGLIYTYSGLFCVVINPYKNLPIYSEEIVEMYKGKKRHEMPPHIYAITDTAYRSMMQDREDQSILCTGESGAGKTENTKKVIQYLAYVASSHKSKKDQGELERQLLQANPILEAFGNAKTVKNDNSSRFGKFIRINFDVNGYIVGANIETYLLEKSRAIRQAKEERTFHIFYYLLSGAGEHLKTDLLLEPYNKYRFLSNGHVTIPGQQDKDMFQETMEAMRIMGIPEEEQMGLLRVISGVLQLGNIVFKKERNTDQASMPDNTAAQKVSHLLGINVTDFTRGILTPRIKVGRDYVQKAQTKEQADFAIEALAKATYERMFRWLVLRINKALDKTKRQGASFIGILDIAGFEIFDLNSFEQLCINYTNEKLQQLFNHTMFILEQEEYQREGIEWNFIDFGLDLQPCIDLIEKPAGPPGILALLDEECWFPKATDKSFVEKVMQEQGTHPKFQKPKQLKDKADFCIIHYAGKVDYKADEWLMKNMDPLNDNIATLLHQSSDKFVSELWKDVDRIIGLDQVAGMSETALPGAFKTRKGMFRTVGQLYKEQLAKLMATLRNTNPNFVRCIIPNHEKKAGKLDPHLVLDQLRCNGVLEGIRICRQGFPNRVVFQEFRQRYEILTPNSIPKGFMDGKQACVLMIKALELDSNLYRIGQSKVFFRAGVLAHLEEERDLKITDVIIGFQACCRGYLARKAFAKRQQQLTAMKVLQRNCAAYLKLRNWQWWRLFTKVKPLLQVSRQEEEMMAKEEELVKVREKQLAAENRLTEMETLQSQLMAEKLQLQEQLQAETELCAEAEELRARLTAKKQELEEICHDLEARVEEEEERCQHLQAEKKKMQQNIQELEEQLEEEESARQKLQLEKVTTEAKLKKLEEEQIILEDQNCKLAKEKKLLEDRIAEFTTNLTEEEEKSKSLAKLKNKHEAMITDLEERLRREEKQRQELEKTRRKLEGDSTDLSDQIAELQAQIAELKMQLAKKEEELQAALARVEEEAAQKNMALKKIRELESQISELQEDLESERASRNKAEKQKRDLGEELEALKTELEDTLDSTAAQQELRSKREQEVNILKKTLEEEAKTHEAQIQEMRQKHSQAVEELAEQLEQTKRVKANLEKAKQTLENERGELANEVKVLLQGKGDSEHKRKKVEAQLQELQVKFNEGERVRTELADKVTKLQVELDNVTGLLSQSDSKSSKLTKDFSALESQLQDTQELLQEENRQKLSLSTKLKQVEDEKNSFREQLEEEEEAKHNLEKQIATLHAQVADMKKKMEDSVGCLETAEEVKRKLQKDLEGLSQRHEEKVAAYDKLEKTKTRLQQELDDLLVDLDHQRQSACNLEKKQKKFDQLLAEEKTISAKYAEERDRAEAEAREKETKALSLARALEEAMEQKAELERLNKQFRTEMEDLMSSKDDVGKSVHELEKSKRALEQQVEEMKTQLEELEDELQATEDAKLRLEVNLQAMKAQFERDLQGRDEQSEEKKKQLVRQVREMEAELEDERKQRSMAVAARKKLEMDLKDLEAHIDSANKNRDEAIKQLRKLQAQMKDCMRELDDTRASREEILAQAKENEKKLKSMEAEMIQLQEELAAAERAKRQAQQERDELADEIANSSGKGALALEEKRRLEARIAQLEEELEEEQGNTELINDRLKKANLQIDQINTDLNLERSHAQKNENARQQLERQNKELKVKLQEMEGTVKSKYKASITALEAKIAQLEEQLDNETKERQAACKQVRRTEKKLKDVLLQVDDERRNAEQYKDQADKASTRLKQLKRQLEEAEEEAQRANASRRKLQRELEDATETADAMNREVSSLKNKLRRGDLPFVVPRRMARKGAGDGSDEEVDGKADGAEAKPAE
UniProt Q13459: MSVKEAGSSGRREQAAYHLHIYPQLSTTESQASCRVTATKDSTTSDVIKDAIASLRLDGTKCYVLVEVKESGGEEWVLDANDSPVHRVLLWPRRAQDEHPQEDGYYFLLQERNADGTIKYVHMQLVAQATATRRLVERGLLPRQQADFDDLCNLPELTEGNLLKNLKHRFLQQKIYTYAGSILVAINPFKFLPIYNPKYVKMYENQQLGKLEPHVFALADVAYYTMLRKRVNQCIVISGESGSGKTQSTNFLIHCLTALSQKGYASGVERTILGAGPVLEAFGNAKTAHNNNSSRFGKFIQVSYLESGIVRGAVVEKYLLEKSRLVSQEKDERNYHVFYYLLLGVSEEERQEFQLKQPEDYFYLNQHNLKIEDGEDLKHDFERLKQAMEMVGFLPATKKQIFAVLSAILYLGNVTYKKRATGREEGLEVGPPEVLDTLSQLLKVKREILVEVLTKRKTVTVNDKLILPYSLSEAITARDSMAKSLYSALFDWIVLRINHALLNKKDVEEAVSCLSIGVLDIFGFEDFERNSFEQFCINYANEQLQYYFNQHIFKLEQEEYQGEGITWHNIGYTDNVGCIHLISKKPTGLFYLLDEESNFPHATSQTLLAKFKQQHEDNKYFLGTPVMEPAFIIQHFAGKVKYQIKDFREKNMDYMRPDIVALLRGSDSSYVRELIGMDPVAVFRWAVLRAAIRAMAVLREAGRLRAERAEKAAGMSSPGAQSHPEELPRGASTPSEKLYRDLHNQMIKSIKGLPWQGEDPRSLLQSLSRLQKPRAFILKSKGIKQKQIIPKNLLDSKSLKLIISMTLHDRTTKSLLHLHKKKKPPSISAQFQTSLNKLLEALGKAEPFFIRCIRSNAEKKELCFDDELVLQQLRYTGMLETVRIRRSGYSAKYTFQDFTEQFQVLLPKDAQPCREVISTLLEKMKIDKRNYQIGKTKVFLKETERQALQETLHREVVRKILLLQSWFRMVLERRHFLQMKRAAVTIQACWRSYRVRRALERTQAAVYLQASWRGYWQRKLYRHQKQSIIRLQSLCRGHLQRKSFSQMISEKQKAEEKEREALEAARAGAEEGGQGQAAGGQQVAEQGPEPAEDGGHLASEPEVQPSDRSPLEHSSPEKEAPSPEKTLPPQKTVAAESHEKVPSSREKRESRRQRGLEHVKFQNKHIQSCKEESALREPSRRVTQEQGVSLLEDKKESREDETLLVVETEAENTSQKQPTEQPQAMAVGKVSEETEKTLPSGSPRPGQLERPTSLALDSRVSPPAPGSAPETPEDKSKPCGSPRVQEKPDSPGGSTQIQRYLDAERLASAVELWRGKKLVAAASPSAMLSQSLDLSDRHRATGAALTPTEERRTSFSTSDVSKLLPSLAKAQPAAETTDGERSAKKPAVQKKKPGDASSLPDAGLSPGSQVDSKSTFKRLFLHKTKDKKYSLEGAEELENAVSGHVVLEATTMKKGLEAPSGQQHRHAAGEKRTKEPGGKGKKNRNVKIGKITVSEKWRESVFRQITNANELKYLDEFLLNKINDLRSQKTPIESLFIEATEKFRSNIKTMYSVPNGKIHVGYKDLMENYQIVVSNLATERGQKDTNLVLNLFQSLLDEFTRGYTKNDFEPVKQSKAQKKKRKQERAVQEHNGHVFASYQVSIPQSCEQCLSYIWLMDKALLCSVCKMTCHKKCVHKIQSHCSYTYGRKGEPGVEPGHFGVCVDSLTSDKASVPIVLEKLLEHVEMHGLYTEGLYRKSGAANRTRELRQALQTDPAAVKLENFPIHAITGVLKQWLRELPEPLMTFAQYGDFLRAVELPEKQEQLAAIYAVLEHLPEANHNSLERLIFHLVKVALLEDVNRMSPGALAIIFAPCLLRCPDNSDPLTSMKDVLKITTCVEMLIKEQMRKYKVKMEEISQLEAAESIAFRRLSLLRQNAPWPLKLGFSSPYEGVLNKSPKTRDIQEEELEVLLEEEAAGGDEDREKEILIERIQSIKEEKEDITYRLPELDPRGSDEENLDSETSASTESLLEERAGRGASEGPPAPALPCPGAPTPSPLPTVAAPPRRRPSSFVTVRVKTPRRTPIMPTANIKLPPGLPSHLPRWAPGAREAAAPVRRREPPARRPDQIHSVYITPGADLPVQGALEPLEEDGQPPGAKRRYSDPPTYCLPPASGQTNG

The targets below were run with COc1ccc(Cn2ccc3cc(C)c(C(=O)NO)cc32)cc1 (assay: dose-dependent thermal stabilisation call (2D-TPP, DLPTP, 10% FDR) (binary (1 = stabilised)); higher = stabilised by the compound). Conditions: system: HL-60 intact cells; concentration range 0.04-10 µM.
Protocol: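 2D thermal proteome profiling in intact HL-60 cells treated with BRD-3811 (0, 0.04, 0.29, 2, 10 uM) for 90 min at 37 C, then heated 3 min at one of 12 temperatures (42-63.9 C). Soluble protein was quantified by TMT10 MS. The value is the DLPTP call of the paper: dose-dependent thermal stabilisation over all temperatures at 10% FDR (F-test of a dose-response against a flat model); one experiment, one call per tested protein.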

Target	dose-dependent thermal stabilisation call
MICAL3 (UniProt Q7RTP6)	inactive: 0
MOV10 (UniProt Q9HCE1)	inactive: 0
MPHOSPH8 (UniProt Q99549)	inactive: 0
MED10 (UniProt Q9BTT4)	inactive: 0
MPST (UniProt P25325)	inactive: 0
MRPL38 (UniProt Q96DV4)	inactive: 0
MTCH2 (UniProt Q9Y6C9)	inactive: 0
N4BP2 (UniProt Q86UW6)	inactive: 0
MFAP1 (UniProt P55081)	inactive: 0
MLH1 (UniProt P40692)	inactive: 0
MRPL10 (UniProt Q7Z7H8)	inactive: 0
MED27 (UniProt Q6P2C8)	inactive: 0
MSH3 (UniProt P20585)	inactive: 0
MTRR (UniProt Q9UBK8)	inactive: 0
MRPL51 (UniProt Q4U2R6)	inactive: 0
MED23 (UniProt Q9ULK4)	inactive: 0
MTSS1L (UniProt Q765P7)	inactive: 0
MLL (UniProt Q03164)	inactive: 0
MEGF9 (UniProt Q9H1U4)	inactive: 0
MTP18 (UniProt Q9UDX5)	inactive: 0

Target	dose-dependent thermal stabilisation call
MED4 (UniProt Q9NPJ6)	inactive: 0
MFSD1 (UniProt Q9H3U5)	inactive: 0
MRPL43 (UniProt Q8N983)	inactive: 0
MRPS12 (UniProt O15235)	inactive: 0
MTHFD2 (UniProt P13995)	inactive: 0
MITD1 (UniProt Q8WV92)	inactive: 0
MTHFS (UniProt P49914)	inactive: 0
MYADM (UniProt Q96S97)	inactive: 0
N6AMT2 (UniProt Q8WVE0)	inactive: 0
MTX1 (UniProt Q13505)	inactive: 0
MRPL9 (UniProt Q9BYD2)	inactive: 0
MYH9 (UniProt P35579)	inactive: 0
MGAM (UniProt O43451)	inactive: 0
NACA	inactive: 0
MIF4GD (UniProt A9UHW6)	inactive: 0
MRPL34 (UniProt Q9BQ48)	inactive: 0
MYST3 (UniProt Q92794)	inactive: 0
MYO9B (UniProt Q13459)	inactive: 0
MND1 (UniProt Q9BWT6)	inactive: 0
MFSD11 (UniProt O43934)	inactive: 0

Reformatted: entries from further up.

| Target | dose-dependent thermal stabilisation call |
| --- | --- |
| MRPL34 (UniProt Q9BQ48) | inactive: 0 |
| MYST3 (UniProt Q92794) | inactive: 0 |
